The values that follow come from patent publication US12060400B2, “Peptides for use in immunotherapy against cancers” (Immatics Biotechnologies GmbH, priority 2018, dated 2024).

In one data set the test system is HLA molecules of primary tumor and normal tissue samples (cancer entities). In words: Identification and label-free LC-MS quantitation of HLA-presented tumor-associated peptides on tissue samples. Set-up: species or system human. To be noted: FIGS. 1A-1J; HLA-A*24 positive normal (N=75) versus tumor samples (N=263), MS signal intensities.
On to “SEQ ID NO.: 60 (RYSPVKDAW; listed as Homo sapiens)”, for which the “over-presentation of the peptide in different cancer tissues” value is “over-presentation”.
Turning to “SEQ ID NO.: 274: peptide found in PTPRZ1 (gene looked up) (EYSLPVLTF; listed as Homo sapiens)”, the “over-presentation of the peptide in different cancer tissues” value is “over-presentation”.
The same measure, in the same setting: then “SEQ ID NO.: 386: peptide found in AR (gene looked up) (YQSRDYYNF; listed as Homo sapiens)”, with “over-presentation”; and “SEQ ID NO.: 202: peptide found in PTPRZ1 (gene looked up) (VYDTMIEKFA; listed as Homo sapiens)”, with “over-presentation”.

The data set is the same for the next values; noted with them: cancer entities on whose tumor tissue samples the HLA-presented peptide was found (LC-MS); abbreviations in the footnotes of Table 8a.
As for “297 (LKSPRLFTF; listed as Homo sapiens) [compound 297]”, the “Peptide Presentation on cancer entities” value is “GBC”.
Still for that read-out and setting: then “234 (RYKMLIPF; listed as Homo sapiens) [compound 234]”, with “PRCA”; and “283 (SYIVDGKII; listed as Homo sapiens) [compound 283]”, with “PRCA”.
Same read-out and setting: then “200 (LYMSVEDFI; listed as Homo sapiens) [compound 200]”, with “NSCLCother”.
Regarding “37 (ISFSDTVNVW; listed as Homo sapiens) [compound 37]”, the “Peptide Presentation on cancer entities” value is recorded as “RCC”.
Still for that read-out and setting: then “381 (IYTDITYSF; listed as Homo sapiens) [compound 381]”, with “AML, CCC, GBC, HCC, NHL, NSCLCadeno, NSCLCsquam, OC, OSCAR, RCC”.
In the case of “78 (TYSKTIALYGF; listed as Homo sapiens) [compound 78]”, the “Peptide Presentation on cancer entities” value is on record as “UBC”.
“259 (FFLFIPFF; listed as Homo sapiens) [compound 259]”: the “Peptide Presentation on cancer entities” value is “NSCLCadeno”.
On the same count and under the same terms, then “213 (FYNRLTKLF; listed as Homo sapiens) [compound 213]”, with “NSCLCadeno”; and “207 (IYKFIMDRF; listed as Homo sapiens) [compound 207]”, with “AML, GBC, GC, HCC, NSCLCadeno, NSCLCother, NSCLCsquam, OSCAR, PRCA, UBC”; and “354 (QYIPTFHVY; listed as Homo sapiens) [compound 354]”, with “BRCA, GBM, HCC, HNSCC, NSCLCsquam, OSCAR”.
For the substance “277 (MSAIWISAF; listed as Homo sapiens) [compound 277]”, the “Peptide Presentation on cancer entities” value is reported as “OSCAR”.
Consider “376 (KYVGEVFNI; listed as Homo sapiens) [compound 376]”, for which the “Peptide Presentation on cancer entities” value is recorded as “AML, CLL, HCC, NHL, NSCLCadeno, NSCLCsquam, RCC”.
For “22 (VYSSFVFNL; listed as Homo sapiens) [compound 22]”, the “Peptide Presentation on cancer entities” value is listed as “NHL”.
In the case of “206 (EVVHTVFLF; listed as Homo sapiens) [compound 206]”, the “Peptide Presentation on cancer entities” value was “GBC, MEL, NSCLCadeno, NSCLCsquam, PRCA, SCLC”.
Same read-out and setting: then “170 (IFIPATILL; listed as Homo sapiens) [compound 170]”, with “HCC”.
Still for that read-out and setting: then “270 (GTGKLFWVF; listed as Homo sapiens) [compound 270]”, with “PACA”; and “75 (VYEHNHVSL; listed as Homo sapiens) [compound 75]”, with “UBC”; and “348 (RSWENIPVTF; listed as Homo sapiens) [compound 348]”, with “CCC”.
Same read-out and setting: then “63 (LYIDKGQYL; listed as Homo sapiens) [compound 63]”, with “GBM, HNSCC, MEL, NSCLCadeno, NSCLCsquam”; and “383 (PYFSPSASF; listed as Homo sapiens) [compound 383]”, with “NSCLCadeno, NSCLCother, UBC”; and “49 (QYLSIAERAEF; listed as Homo sapiens) [compound 49]”, with “GC, UBC”.
With “285 (YFLPGPHYF; listed as Homo sapiens) [compound 285]”, the “Peptide Presentation on cancer entities” value was “RCC”.
“69 (KWFDSHIPRW; listed as Homo sapiens) [compound 69]”: the “Peptide Presentation on cancer entities” value is on record as “GBC”.
On the same count and under the same terms, then “143 (KTKRWLWDF; listed as Homo sapiens) [compound 143]”, with “NSCLCadeno, NSCLCsquam”; and “21 (LYMRFVNTHF; listed as Homo sapiens) [compound 21]”, with “AML”.
Turning to “51 (YFDENIQKF; listed as Homo sapiens) [compound 51]”, the “Peptide Presentation on cancer entities” value is recorded as “NSCLCsquam, OSCAR”.
In the case of “250 (VYSDRQIYLL; listed as Homo sapiens) [compound 250]”, the “Peptide Presentation on cancer entities” value is “HCC”.
For the substance “168 (LSSPVHLDF; listed as Homo sapiens) [compound 168]”, the “Peptide Presentation on cancer entities” value is listed as “CRC, HCC, NHL, NSCLCadeno, OSCAR, RCC, UEC”.
On the same count and under the same terms, then “127 (FLPRAYYRW; listed as Homo sapiens) [compound 127]”, with “PRCA”; and “34 (LIFALALAAF; listed as Homo sapiens) [compound 34]”, with “UEC”.
As for “53 (LFQRVSSVSF; listed as Homo sapiens) [compound 53]”, the “Peptide Presentation on cancer entities” value is given as “HCC”.
Take “351 (GYFGTASLF; listed as Homo sapiens) [compound 351]”: the “Peptide Presentation on cancer entities” value is “NSCLCadeno, NSCLCother”.
As for “102 (VLASAHILQF; listed as Homo sapiens) [compound 102]”, the “Peptide Presentation on cancer entities” value is given as “NSCLCadeno”.
Turning to “192 (CYSFIHLSF; listed as Homo sapiens) [compound 192]”, the “Peptide Presentation on cancer entities” value is “HCC, NHL”.
Regarding “319 (ATATLHLIF; listed as Homo sapiens) [compound 319]”, the “Peptide Presentation on cancer entities” value is reported as “UEC”.
Regarding “134 (IYSSQLPSF; listed as Homo sapiens) [compound 134]”, the “Peptide Presentation on cancer entities” value is listed as “CLL”.
Take “117 (RSMEHPGKLLF; listed as Homo sapiens) [compound 117]”: the “Peptide Presentation on cancer entities” value is reported as “NSCLCadeno, UEC”.
On to “25 (MLPEASLLI; listed as Homo sapiens) [compound 25]”, for which the “Peptide Presentation on cancer entities” value was “NHL”.
On the same count and under the same terms, then “228 (VYLRIGGF; listed as Homo sapiens) [compound 228]”, with “MEL, NSCLCadeno, NSCLCsquam, OSCAR, PRCA, RCC, SCLC, UBC”; and “154 (DYSKQALSL; listed as Homo sapiens) [compound 154]”, with “NSCLCadeno”.
As for “199 (MFQFEHIKW; listed as Homo sapiens) [compound 199]”, the “Peptide Presentation on cancer entities” value was “NSCLCadeno”.
As to “114 (KALMSAFYTF; listed as Homo sapiens) [compound 114]”, the “Peptide Presentation on cancer entities” value is given as “CCC”.
On the same count and under the same terms, then “373 (IWDALERTF; listed as Homo sapiens) [compound 373]”, with “CLL, CRC, GBC, GBM, GC, HCC, HNSCC, MEL, NHL, NSCLCadeno, NSCLCsquam, OC, OSCAR, PRCA”; and “257 (MLILFFSTI; listed as Homo sapiens) [compound 257]”, with “MEL”; and “367 (HWSHITHLF; listed as Homo sapiens) [compound 367]”, with “CCC, CRC, GBM, GC, MEL”.
Turning to “184 (VYVRPRVF; listed as Homo sapiens) [compound 184]”, the “Peptide Presentation on cancer entities” value is given as “NSCLCadeno”.
For “182 (AQGSGTVTF; listed as Homo sapiens) [compound 182]”, the “Peptide Presentation on cancer entities” value was “CLL”.
The same measure, in the same setting: then “103 (EMFFSPQVF; listed as Homo sapiens) [compound 103]”, with “CRC, HCC, NSCLCadeno”; and “198 (VLAPVSGQF; listed as Homo sapiens) [compound 198]”, with “CLL, GBC, GC, MEL, NHL, NSOLCadeno, NSCLCsquam, SCLC”; and “267 (QHMLPFWTDL; listed as Homo sapiens) [compound 267]”, with “OSCAR”.
Consider “258 (VCWNPFNNTF; listed as Homo sapiens) [compound 258]”, for which the “Peptide Presentation on cancer entities” value is “CRC”.
Still for that read-out and setting: then “139 (AYAPRGSIYKF; listed as Homo sapiens) [compound 139]”, with “GBC, NSCLCadeno”; and “377 (SLWREVVTF; listed as Homo sapiens) [compound 377]”, with “OC, RCC”.
Consider “322 (SFISPRYSWLF; listed as Homo sapiens) [compound 322]”, for which the “Peptide Presentation on cancer entities” value is reported as “AML, CRC, NSCLCadeno, NSCLCsquam, UBC”.
In the case of “328 (IYLVGGYSW; listed as Homo sapiens) [compound 328]”, the “Peptide Presentation on cancer entities” value was “CLL”.
Still for that read-out and setting: then “115 (IMQGFIRAF; listed as Homo sapiens) [compound 115]”, with “NSCLCadeno”; and “60 (RYSPVKDAW; listed as Homo sapiens) [compound 60]”, with “CCC, GBC, NHL, NSCLCadeno, NSCLCother, NSCLCsquam, OC, OSCAR”.
For the substance “88 (TYVPSTFLV; listed as Homo sapiens) [compound 88]”, the “Peptide Presentation on cancer entities” value is listed as “CCC, GBM, GC, NSCLCsquam, OSCAR, PACA”.
Regarding “141 (QYAAAITNGL; listed as Homo sapiens) [compound 141]”, the “Peptide Presentation on cancer entities” value is “NSCLCsquam”.
“264 (AYAIPSASLSW; listed as Homo sapiens) [compound 264]”: the “Peptide Presentation on cancer entities” value is “HCC”.
With “54 (SYQEAIQQL; listed as Homo sapiens) [compound 54]”, the “Peptide Presentation on cancer entities” value was “PRCA”.
Regarding “50 (RYFDENIQKF; listed as Homo sapiens) [compound 50]”, the “Peptide Presentation on cancer entities” value was “OSCAR”.
